This note sets out measurements from PubChem BioAssay AID2685 (National Center for Advancing Translational Sciences (NCATS), 2010).

Structures are written as SMILES. This is one part of the list. These are further read-outs of the screen, such as a control signal, another cell line or another target. No call is given for them. Most of these compounds were active or inconclusive in the main read-out, so they are no random draw. Potencies come from curve fits of mixed quality, noted in brackets.

The nature of the assay: qHTS Assay for Lipid Storage Modulators in Drosophila S3 Cells.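 On cell number change: cells counted by Cell Tracker Red CMTPX staining in the red channel.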 The conditions noted are these: BODIPY lipid droplet fluorescence, 18-24 h; for cell number change: measured here: cell count max response, cells fed with added oleic acid. The method in brief:
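Drosophila S3 cells got compounds at several concentrations plus oleic acid (400 uM solution). Laser-scanning cytometry with 488 nm excitation read lipid droplets at 500-530 nm and cells at 575-640 nm. Percent activity was relative to 20 uM Triacsin C.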
A general note: Quantitative high-throughput screening tests each substance at several concentrations.

[1] abbreviates: measured here: lipid fluorescence (Fed channel) AC50, cells fed with added oleic acid.
[2] abbreviates: measured here: cell number channel AC50, cells fed with added oleic acid.

What is called AC50 is the midpoint of the concentration-response curve, whichever way the signal moves.

Take `COc1nc(Nc2cccc(F)c2)nc(OC)n1`: the cell number change worked out at 25.8%. In the case of `COc1ccc(Cl)cc1NC(=O)CCNS(=O)(=O)c1cccc2nonc12`, the cell number change is -18.1%. The AC50 under setting [1] was 0.206 µM [rising, single point].

Regarding `COc1ccc(OC)c(NC(=O)C2CC(=O)N(Cc3ccco3)C2)c1` (stereo unspecified), the cell number change was 75%. Besides, the AC50 under setting [2] is 29.1 µM [rising, single point]. Regarding `CC(=O)c1cccc(NC(=O)CSc2ccc(-c3sc(C)nc3C)nn2)c1`, the cell number change is -11%. Besides, the concentration at half-maximal activity (AC50) under setting [1] was 4.61 µM [rising, partial curve]. Take `NNC(=O)C1CC(O)CN1S(=O)(=O)c1ccc(Cl)cc1` (stereo unspecified): the cell number change is 1.32%. In addition, under setting [1], the half-maximal activity concentration (AC50) was 0.00461 µM [falling, full curve, poor fit]. On to `Cn1c(=O)c2c3c(sc2n2c(SCC(N)=O)nnc12)CC(C(C)(C)C)CC3` (stereo unspecified), for which the cell number change was -39.7%. For the same compound, the AC50 under setting [2] was 20.6 µM [falling, single point]. For the compound `COc1ccc(C2=CC(=O)C[C@H](c3ccc4c(c3)OCO4)C2)cc1`, the cell number change was -8.1%.

As for `CC(C)(C)C(=O)N1CCN(c2ncccc2C(F)(F)F)CC1`, the cell number change stood at 31.9%. The concentration at half-maximal activity (AC50) under setting [1] is 8.2 µM [rising, partial curve, poor fit].

Turning to `Cn1c(-c2ccccc2)cnc1SCc1nc2ccccc2c(=O)[nH]1`, the AC50 is, setting by setting: under setting [2], 2.59 µM [rising, partial curve]; under setting [1], 1.16 µM [rising, partial curve].

Regarding `CCOc1ccc(CN(C)CC(=O)Nc2cc(OC)c([N+](=O)[O-])cc2C)cc1`, the cell number change is -0.725%. Moreover, the concentration at half-maximal activity (AC50) under setting [2] was 0.13 µM [rising, full curve, poor fit]. The AC50 under setting [1] was 0.146 µM [rising, full curve, poor fit]. In the case of `O=C(CNC(=O)C(c1ccccc1)c1ccccc1)OCc1ccccc1`, the cell number change is -25.9%. Moreover, the AC50 under setting [1] was 1.84 µM [falling, full curve, poor fit]. As to `CCC1CCCCN1C(=O)CSc1nnc(-c2ccc(Cl)s2)o1` (stereo unspecified), the cell number change was -24.2%. For `O=C(NCc1ccc2c(c1)OCO2)c1c(F)c(F)c(F)c(F)c1F`, the cell number change is -5.75%. Moreover, the AC50 under setting [1] is 5.8 µM [falling, single point]. Take `O=C(C1CCN(S(=O)(=O)c2cccnc2)CC1)N1CCN(c2ccc(Cl)cc2)CC1`: the cell number change was -35.8%. In addition, the AC50 under setting [2] was 0.13 µM [falling, full curve, poor fit]. For the same compound, under setting [1], the concentration at half-maximal activity (AC50) was 6.51 µM [falling, single point].

Take `Cc1ccc2nc(SCC(=O)c3ccc(Cl)cc3)nc(=O)n2c1`: the cell number change is -11.5%. For the compound `Cc1ccc(CNC(=O)CCSCCC(=O)NCc2ccc(C)cc2)cc1`, the cell number change is -46.2%. Besides, the concentration at half-maximal activity (AC50) under setting [2] was 18.4 µM [falling, single point].

Consider `CCc1sc(N(C(=O)Cc2ccccc2)c2ccc(F)cc2)nc1-c1ccccc1`, for which the cell number change stood at 13.3%. The concentration at half-maximal activity (AC50) under setting [1] was 6.51 µM [rising, single point]. For the compound `CCN(CC(=O)NC1CCS(=O)(=O)C1)C(=O)c1cc(OC)c(OC)c(OC)c1` (stereo unspecified), the cell number change was -33.1%. Also, under setting [2], the AC50 was 0.82 µM [falling, full curve, poor fit]. Also, the AC50 under setting [1] is 0.116 µM [falling, full curve]. In the case of `CCOc1ccccc1NC(=O)COc1ccc(S(=O)(=O)N2CCCC2)cc1`, the cell number change turned out to be 53.9%. Moreover, under setting [1], the AC50 was 5.62 µM [rising, single point].

For `CCOC(=O)c1c(C)[nH]c(C(=O)COC(=O)CNC(=O)C2CCCCC2)c1C`, the cell number change was 21.5%. The AC50 under setting [1] was 16.4 µM [rising, partial curve].

On to `COC(=O)CP(=O)(c1ccccc1)c1ccccc1`, for which the cell number change is -64.9%. In addition, under setting [2], the AC50 was 29.1 µM [falling, single point]. For the same compound, the concentration at half-maximal activity (AC50) under setting [1] was 1.03 µM [falling, partial curve]. Take `Cc1nn(Cc2ccccc2Cl)c(C)c1C(=O)N1CCN(c2ccccc2)CC1`: the cell number change was -3.95%. Also, the half-maximal activity concentration (AC50) under setting [1] is 3.26 µM [rising, partial curve]. With `CC(/C=N/NC(=O)c1nnn(-c2nonc2N)c1C(C)C)=C\c1ccco1`, the cell number change was -15.7%.

Take `CCC(C)(C)NC(=O)CN(Cc1ccco1)C(=O)CCC(=O)Nc1nccs1`: the cell number change was -6.67%. Under setting [2], the AC50 is 0.82 µM [rising, single point]. `Cc1ccc(-n2c(SCC(N)=O)nc3c([nH]c4ccccc43)c2=O)cc1`: under setting [2], the AC50 was 2.31 µM [rising, partial curve]. For the compound `Cc1ccc(Nc2nc(N3CCOCC3)c3ccccc3n2)cc1`, the cell number change is -52%. Besides, the AC50 under setting [2] was 29.1 µM [falling, single point]. The AC50 under setting [1] was 0.58 µM [rising, single point]. Turning to `O=C(CNCc1ccco1)Nc1cccc(S(=O)(=O)N2CCCCC2)c1`, the cell number change stood at 22.9%. In addition, the AC50 under setting [1] is 1.3 µM [rising, full curve, poor fit]. Take `CCC(C)NCCOc1cccc(Br)c1` (stereo unspecified): the AC50 under setting [2] was 0.103 µM [falling, full curve, poor fit].

For `O=C(N1CCOCC1)C12CCC3CC(CC(C3)C1)C2`, the cell number change is -25.2%. Also, under setting [1], the concentration at half-maximal activity (AC50) was 25.9 µM [falling, partial curve, poor fit].

For the compound `Cc1cccc2cc3c(nc12)-c1ccccc1C3=O`, the cell number change is -33.5%. Also, the AC50 under setting [2] is 29.1 µM [falling, single point]. In addition, the AC50 under setting [1] is 25.9 µM [falling, partial curve]. In the case of `CC(C)N(CC(N)=O)c1ccc(S(=O)(=O)N2CCCC2)cn1`, the cell number change was determined as 0.995%.

Take `Cc1ccc(S(=O)(=O)NCC(=O)OCC(=O)Nc2ccc3c(c2)OCCO3)cc1`: the cell number change is 9.78%. Besides, under setting [2], the AC50 is 5.17 µM [falling, single point]. Also, the AC50 under setting [1] is 3.26 µM [falling, single point]. In the case of `Cc1cccc(-n2ncc3c2CCCC3NC(=O)CCc2ccncc2)c1C` (stereo unspecified), the cell number change is -43.6%. For the same compound, the concentration at half-maximal activity (AC50) under setting [2] is 20.6 µM [falling, single point]. Further, under setting [1], the AC50 is 29.1 µM [falling, single point].

As for `Cc1oc(=O)c(NC(=O)c2ccc(Cl)cc2)cc1C(=O)c1ccccc1`, the cell number change is -58.6%. Besides, the AC50 under setting [2] is 23.1 µM [falling, single point]. Further, the AC50 under setting [1] was 18.4 µM [falling, partial curve]. With `CN1CCCN(Cc2ccccc2C(F)(F)F)CC1`, the cell number change came out at 22%. Moreover, under setting [1], the AC50 was 9.2 µM [falling, partial curve]. Turning to `COC(=O)C1=C(C)Nc2ncnn2C1c1ccc(C)o1` (stereo unspecified), the cell number change was found to be 9.2%.

As to `O=S(=O)(c1ccc(NC(=S)N/N=C/c2ccc(N3CCOCC3)cc2)cc1)N1CCOCC1`, the cell number change was -60.5%. Besides, the concentration at half-maximal activity (AC50) under setting [2] is 32.6 µM [falling, partial curve]. For the same compound, the AC50 under setting [1] was 0.00411 µM [falling, full curve, poor fit]. `CCCc1nnc(NC(=O)CNc2ccc(F)cc2)s1`: the cell number change was found to be 6.94%. Under setting [1], the AC50 is 4.61 µM [rising, full curve]. Take `C=CCNC(=O)CN1N=C(c2ccc(C)cc2)CCC1=O`: the AC50 under setting [1] is 6.51 µM [rising, single point]. `Cc1ccn2cc(C(=O)Nc3cccc(C(=O)NC4CC4)c3)nc2c1`: the cell number change was found to be 45.5%. For the same compound, the half-maximal activity concentration (AC50) under setting [2] was 0.231 µM [rising, full curve].

For `CC(=O)Nc1ccc(Oc2cc(NC(C)=O)cc([N+](=O)[O-])c2)cc1`, the cell number change came to 18.4%. In addition, the AC50 under setting [1] is 23.1 µM [rising, single point]. In the case of `Cc1ccc(Nc2nc(N)nc(-c3oc4ccccc4c3C)n2)cc1`, the cell number change was -40.6%. Further, under setting [2], the AC50 was 3.26 µM [falling, full curve]. The AC50 under setting [1] is 16.4 µM [falling, single point]. Regarding `Cc1ccc(N2C(=O)Nc3ccc(Br)cc3C2(O)C(=O)NCCCN(C)C)cc1C` (stereo unspecified), the half-maximal activity concentration (AC50) under setting [1] is 29.1 µM [falling, single point]. Regarding `C/C(CC(=O)Nc1cccc(Br)c1)=N\NC(=O)c1ccc(O)cc1O`, the cell number change was -16.9%. Besides, the AC50 under setting [1] was 7.31 µM [rising, partial curve]. For `O=S1(=O)CCC(NC(=S)NC2CCS(=O)(=O)C2)C1` (stereo unspecified), the cell number change was found to be 6.72%. Further, the concentration at half-maximal activity (AC50) under setting [1] was 13 µM [rising, partial curve]. Turning to `O=[N+]([O-])c1ccc(/C=[N+](\[O-])[C@@H]2CCCC[C@@H]2/[N+]([O-])=C/c2ccc([N+](=O)[O-])o2)o1`, the cell number change is -22.3%. Also, the half-maximal activity concentration (AC50) under setting [1] was 7.31 µM [falling, partial curve, poor fit]. Take `O=C(NC(=S)NNC(=O)[C@H]1C[C@@H]1c1ccccc1)c1ccc(F)cc1`: the cell number change is -19.1%. In addition, the AC50 under setting [1] is 29.1 µM [falling, single point]. For `O=C(CN1CCN(C(=O)c2cccs2)CC1)NC1CCCCC1`, the cell number change is 0.0646%. Also, the AC50 under setting [1] is 0.731 µM [rising, single point]. Take `Cc1cccn2cc(CCNC(=O)c3ccc(Br)o3)nc12`: under setting [1], the AC50 was 6.51 µM [rising, single point].

With `O=C(c1cc(-n2cnnc2)ccc1Cl)N1CCN(c2nc(-c3ccccc3)cs2)CC1`, the cell number change is -47.8%. The AC50 under setting [2] is 25.9 µM [falling, single point]. For the same compound, the AC50 under setting [1] is 25.9 µM [falling, single point]. Turning to `CC(C)CNC(=S)NNC(=O)CC(C)O` (stereo unspecified), the cell number change is 16.5%. Regarding `CC(=O)Nc1cc(C(=O)N2CCc3ccccc3C2)ccc1Sc1ccc(C)cc1`, the cell number change is 20.3%. Moreover, the half-maximal activity concentration (AC50) under setting [1] is 2.31 µM [rising, partial curve, poor fit]. For the compound `O=C(CN(C(=O)c1csnn1)c1ccc(F)cc1)NCCc1ccccc1`, the cell number change was -15.4%.

Consider `O=C1C(C=NCCCN2CCOCC2)=C(O)c2ccccc21`, for which the cell number change was determined as 3.65%.

Consider `COCCC(=O)N1CCC(C(=O)Nc2ccc(Oc3ccccc3)nc2)CC1`, for which the cell number change is 19.1%. For the same compound, under setting [2], the AC50 was 0.058 µM [rising, full curve, poor fit]. Consider `CCc1c(C)nc(N)n2c(SCC(=O)N3CCCC(C)C3)nnc12` (stereo unspecified), for which the cell number change was 3.05%. In addition, the half-maximal activity concentration (AC50) under setting [1] is 0.092 µM [falling, full curve, poor fit]. Consider `Cc1cc(NC(=O)c2ccc(S(=O)(=O)N3CCOCC3)cc2)no1`, for which the concentration at half-maximal activity (AC50) runs as follows: under setting [2], 0.164 µM [falling, partial curve]; under setting [1], 0.13 µM [falling, full curve]. With `COc1ccc(CCNC(=O)C2CC(=O)N(C3CCCCCCC3)C2)cc1OC` (stereo unspecified), the cell number change is 15.6%. Further, the half-maximal activity concentration (AC50) under setting [1] was 1.46 µM [rising, full curve, poor fit]. Regarding `CN(C)C(=O)CSc1n[nH]c(=O)n1CCc1ccccc1`, the cell number change is -4.5%. Take `COc1ccc(OCc2cc(C(=O)N3C[C@H]4CC[C@H]3C4)no2)c(Cl)c1`: the cell number change was -27.6%. For the same compound, the half-maximal activity concentration (AC50) under setting [1] is 23.1 µM [falling, single point].
